# Experimental data as given in the supplement of paper PMC10849652.
# Amino acid sequences for entries named in this document (tags omitted). A change or cut given only in a name is not applied to a line headed by its entry.
# UniProt Q502W6: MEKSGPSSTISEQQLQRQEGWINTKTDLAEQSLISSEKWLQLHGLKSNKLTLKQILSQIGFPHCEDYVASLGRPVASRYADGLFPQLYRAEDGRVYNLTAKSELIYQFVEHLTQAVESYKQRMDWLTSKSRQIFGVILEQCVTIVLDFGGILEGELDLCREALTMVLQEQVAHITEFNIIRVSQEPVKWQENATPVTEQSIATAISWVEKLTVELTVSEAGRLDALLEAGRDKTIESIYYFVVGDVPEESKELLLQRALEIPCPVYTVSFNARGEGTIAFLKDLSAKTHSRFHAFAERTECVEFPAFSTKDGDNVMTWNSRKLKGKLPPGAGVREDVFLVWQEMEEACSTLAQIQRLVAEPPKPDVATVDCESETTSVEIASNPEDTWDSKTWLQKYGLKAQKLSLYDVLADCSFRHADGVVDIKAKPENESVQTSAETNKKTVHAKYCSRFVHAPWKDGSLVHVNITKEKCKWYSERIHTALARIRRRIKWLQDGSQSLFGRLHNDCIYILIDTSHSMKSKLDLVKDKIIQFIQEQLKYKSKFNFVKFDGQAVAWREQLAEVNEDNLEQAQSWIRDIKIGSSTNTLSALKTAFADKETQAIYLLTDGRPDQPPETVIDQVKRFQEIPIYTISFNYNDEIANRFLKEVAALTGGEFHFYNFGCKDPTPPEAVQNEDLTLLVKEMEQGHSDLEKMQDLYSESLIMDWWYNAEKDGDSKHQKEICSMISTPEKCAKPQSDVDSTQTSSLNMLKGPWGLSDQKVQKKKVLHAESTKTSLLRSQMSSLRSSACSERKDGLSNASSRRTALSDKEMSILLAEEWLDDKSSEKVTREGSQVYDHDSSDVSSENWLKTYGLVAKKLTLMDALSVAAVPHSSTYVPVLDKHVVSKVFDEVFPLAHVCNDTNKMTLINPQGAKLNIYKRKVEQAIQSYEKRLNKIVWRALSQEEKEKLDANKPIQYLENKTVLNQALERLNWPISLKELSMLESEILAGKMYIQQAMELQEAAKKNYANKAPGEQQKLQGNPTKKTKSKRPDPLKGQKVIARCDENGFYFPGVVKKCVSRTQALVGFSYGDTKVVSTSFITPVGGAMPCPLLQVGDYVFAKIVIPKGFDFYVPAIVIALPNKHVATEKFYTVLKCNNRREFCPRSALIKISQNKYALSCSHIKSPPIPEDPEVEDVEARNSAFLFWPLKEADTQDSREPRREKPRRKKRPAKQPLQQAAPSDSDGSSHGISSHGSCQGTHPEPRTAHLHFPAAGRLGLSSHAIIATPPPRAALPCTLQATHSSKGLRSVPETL
# UniProt Q8NEZ2: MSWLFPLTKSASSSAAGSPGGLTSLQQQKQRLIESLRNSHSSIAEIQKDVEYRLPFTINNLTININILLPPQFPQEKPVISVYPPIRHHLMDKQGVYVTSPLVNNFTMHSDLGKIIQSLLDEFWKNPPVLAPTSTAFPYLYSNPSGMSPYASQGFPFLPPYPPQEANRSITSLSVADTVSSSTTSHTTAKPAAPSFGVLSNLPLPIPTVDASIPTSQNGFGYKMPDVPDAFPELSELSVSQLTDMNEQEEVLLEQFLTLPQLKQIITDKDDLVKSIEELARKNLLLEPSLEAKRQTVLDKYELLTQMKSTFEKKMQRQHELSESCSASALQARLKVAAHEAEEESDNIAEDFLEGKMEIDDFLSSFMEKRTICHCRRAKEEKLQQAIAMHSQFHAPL
# UniProt P57081: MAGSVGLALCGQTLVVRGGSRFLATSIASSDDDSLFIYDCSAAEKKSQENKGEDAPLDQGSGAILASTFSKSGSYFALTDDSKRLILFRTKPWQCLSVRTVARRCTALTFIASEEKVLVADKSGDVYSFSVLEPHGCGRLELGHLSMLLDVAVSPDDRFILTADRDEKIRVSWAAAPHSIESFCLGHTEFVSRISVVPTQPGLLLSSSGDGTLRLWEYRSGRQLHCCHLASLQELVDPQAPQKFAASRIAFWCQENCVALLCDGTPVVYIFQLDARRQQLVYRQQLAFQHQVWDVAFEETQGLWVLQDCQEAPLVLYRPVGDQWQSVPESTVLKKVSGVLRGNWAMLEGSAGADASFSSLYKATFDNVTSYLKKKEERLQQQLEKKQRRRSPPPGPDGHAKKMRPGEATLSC
# UniProt Q9UGM6: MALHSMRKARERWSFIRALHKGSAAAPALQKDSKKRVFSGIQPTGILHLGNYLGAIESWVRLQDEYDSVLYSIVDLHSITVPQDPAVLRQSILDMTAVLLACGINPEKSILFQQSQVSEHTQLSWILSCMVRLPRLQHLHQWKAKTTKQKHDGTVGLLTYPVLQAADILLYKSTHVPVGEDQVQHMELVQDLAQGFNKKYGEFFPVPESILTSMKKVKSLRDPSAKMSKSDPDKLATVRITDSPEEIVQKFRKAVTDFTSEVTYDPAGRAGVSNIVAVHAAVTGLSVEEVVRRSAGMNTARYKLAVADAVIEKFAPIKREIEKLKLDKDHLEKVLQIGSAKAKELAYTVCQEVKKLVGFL
# UniProt A4D1P6: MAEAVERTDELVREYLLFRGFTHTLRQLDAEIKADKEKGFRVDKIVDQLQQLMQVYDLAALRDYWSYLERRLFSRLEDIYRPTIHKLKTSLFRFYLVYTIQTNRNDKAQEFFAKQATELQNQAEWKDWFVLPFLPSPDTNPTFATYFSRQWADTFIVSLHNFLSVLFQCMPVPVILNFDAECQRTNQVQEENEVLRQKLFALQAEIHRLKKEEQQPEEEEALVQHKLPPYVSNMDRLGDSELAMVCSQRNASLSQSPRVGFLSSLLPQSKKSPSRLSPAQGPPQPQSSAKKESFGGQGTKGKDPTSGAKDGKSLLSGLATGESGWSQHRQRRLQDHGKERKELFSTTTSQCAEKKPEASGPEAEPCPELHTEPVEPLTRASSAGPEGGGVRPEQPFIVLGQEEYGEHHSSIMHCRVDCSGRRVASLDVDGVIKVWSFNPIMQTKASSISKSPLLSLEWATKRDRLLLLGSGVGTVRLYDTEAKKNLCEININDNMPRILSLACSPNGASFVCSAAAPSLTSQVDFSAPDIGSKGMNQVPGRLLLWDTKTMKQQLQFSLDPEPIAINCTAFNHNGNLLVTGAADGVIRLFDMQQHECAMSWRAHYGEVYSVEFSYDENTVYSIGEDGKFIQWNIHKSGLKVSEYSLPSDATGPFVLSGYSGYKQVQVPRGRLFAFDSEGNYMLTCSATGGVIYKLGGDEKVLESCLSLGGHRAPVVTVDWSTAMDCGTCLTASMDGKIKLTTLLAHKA
# UniProt Q99986: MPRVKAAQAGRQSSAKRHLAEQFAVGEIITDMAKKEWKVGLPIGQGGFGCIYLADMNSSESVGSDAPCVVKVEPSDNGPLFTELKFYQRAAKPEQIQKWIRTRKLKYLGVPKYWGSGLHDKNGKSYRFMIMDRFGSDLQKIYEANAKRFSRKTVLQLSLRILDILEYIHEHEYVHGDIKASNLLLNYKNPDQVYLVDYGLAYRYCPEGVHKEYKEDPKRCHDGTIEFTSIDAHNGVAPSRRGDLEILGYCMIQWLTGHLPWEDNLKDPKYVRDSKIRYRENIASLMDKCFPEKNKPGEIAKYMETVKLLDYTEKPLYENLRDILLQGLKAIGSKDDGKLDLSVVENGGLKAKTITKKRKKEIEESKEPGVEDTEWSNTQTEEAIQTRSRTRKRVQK
# UniProt P45880: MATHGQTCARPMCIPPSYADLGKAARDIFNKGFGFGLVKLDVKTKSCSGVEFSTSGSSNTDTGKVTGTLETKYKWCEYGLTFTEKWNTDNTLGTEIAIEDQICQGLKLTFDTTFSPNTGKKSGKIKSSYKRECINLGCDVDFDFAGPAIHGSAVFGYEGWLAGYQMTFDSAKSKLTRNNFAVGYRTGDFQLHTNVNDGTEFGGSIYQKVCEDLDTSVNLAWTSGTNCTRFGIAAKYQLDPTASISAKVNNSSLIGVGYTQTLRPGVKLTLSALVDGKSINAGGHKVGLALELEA
# WASHC2C, A0A096LPC5, UniProt A0A096LPC5, whole entry, looked up: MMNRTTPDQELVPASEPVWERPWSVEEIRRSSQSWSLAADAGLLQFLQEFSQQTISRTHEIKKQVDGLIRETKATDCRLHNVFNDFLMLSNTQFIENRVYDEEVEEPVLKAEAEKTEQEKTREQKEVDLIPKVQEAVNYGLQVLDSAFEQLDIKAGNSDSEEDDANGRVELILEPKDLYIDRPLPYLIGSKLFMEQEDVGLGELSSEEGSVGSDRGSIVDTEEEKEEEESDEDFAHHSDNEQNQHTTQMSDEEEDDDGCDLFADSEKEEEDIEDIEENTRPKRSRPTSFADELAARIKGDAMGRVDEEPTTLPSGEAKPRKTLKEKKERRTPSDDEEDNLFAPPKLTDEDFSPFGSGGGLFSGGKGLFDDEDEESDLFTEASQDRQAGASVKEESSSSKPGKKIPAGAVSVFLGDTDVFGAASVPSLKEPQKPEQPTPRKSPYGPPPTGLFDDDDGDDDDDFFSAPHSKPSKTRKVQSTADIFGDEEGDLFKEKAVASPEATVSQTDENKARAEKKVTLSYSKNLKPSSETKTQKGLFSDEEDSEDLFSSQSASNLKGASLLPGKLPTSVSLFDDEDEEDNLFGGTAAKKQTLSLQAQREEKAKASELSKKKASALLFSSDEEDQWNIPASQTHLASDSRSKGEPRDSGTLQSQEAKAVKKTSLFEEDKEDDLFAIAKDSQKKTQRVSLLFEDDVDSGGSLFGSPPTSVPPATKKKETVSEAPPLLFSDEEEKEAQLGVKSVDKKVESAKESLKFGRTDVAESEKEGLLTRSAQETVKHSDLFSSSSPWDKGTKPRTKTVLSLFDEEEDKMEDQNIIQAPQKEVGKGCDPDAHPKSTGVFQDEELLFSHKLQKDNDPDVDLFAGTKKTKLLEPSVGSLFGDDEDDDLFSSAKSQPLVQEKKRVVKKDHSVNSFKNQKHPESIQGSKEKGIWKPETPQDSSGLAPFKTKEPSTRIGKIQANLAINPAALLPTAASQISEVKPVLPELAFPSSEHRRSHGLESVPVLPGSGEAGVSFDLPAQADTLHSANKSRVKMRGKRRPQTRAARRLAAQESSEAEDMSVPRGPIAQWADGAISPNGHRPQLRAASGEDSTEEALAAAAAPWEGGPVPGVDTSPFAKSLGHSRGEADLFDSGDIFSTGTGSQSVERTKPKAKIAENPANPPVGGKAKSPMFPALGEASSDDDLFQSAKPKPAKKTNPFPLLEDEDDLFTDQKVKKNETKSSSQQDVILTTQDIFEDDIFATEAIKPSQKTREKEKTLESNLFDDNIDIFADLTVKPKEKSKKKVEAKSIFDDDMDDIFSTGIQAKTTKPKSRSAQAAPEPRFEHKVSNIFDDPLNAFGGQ
# UniProt Q9H977: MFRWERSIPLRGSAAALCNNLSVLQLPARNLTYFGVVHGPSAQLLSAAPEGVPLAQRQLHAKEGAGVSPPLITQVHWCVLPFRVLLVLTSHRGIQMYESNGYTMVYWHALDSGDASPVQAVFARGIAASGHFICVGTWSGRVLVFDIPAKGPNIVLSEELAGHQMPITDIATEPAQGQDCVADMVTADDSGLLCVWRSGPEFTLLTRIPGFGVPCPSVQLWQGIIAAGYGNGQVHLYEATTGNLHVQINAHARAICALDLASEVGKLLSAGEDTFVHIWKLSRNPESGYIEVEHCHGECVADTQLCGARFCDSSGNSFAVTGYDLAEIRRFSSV
# UniProt Q9H9C1: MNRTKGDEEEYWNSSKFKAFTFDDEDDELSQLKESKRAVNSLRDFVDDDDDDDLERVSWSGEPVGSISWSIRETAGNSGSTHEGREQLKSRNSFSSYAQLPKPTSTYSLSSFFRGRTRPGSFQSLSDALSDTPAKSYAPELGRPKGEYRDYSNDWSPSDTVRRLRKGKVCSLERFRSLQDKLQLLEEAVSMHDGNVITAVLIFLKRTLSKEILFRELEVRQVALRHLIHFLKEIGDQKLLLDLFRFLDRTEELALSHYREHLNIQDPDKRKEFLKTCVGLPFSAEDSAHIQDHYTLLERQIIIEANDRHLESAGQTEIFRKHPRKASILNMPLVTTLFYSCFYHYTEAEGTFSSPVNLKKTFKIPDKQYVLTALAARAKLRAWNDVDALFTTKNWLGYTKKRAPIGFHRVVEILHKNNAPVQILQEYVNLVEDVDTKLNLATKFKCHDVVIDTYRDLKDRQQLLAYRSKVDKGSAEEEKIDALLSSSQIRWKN
# UniProt P40337, whole entry, looked up: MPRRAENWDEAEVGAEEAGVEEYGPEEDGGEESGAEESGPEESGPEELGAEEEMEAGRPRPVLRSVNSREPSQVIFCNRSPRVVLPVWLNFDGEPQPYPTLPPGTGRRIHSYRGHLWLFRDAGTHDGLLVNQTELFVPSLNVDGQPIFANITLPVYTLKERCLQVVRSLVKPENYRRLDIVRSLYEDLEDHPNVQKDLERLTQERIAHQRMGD
# UniProt Q9BRX9: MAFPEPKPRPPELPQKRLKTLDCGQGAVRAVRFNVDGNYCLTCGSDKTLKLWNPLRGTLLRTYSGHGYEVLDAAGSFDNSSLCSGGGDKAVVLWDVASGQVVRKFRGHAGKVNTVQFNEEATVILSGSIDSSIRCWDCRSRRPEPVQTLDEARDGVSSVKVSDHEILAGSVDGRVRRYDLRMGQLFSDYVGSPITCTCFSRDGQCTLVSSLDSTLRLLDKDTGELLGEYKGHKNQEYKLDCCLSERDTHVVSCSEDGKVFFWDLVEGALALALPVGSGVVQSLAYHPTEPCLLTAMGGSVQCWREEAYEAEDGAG
# Some of the results follow. Residues, ends and D or L forms follow the SMILES beside them. *: point of attachment. Cbz = O=C(OCc1ccccc1)*
# What was measured:
# Experiment in all cases: log2 fold change, soluble protein after heating vs DMSO (PISA); higher = thermal stabilisation; K562 cells, 10 uM, 30 min; active = over 0.2 and 3.5 SD of the protein, either way, in both replicates (recomputed)
# IRAK-1-4 Inhibitor I = compound: C1COCCN1CCN2C3=CC=CC=C3N=C2NC(=O)C4=CC(=CC=C4)[N+](=O)[O-] [IRAK-1-4 Inhibitor I]
# Procedure, shortened: (§1)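 Soluble protein was defined as the supernatant after 21,000xg for 90 min. It came from K562 cells at 2×10^6 cells/mL given 10 μM compound for 30 min, heated in aliquots for 3 min across 48°C-58°C, pooled, and extracted in PBS with 0.5% NP-40 at 4°C, and was quantified by TMTpro 16plex LC-MS/MS with equalised channel sums. Thermal stability against control samples, from duplicates, is reported as log2 fold change.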
# ralimetinib = compound: CC(C)(C)Cn1c(N)nc2ccc(-c3[nH]c(C(C)(C)C)nc3-c3ccc(F)cc3)nc21 [ralimetinib]
# Procedure, shortened: as §1
# [1] = compound: CC(C)(O)CC(=O)NCCn1ccc2ncnc(Nc3ccc(Oc4cccc(C(F)(F)F)c4)c(Cl)c3)c21
# Procedure, shortened: as §1
# [2] = compound: CC(C)C[C@@H](C=O)NC(=O)[C@H](CC(C)C)NC(=O)[C@H](CC(C)C)NC(=O)OCc1ccccc1
# Procedure, shortened: as §1
# pinometostat = compound: CC(C)N(C[C@H]1O[C@@H](n2cnc3c(N)ncnc32)[C@H](O)[C@@H]1O)[C@H]1C[C@@H](CCc2nc3cc(C(C)(C)C)ccc3[nH]2)C1 [pinometostat]
# Procedure, shortened: as §1
# ibrutinib = compound: C=CC(=O)N1CCC[C@@H](n2nc(-c3ccc(Oc4ccccc4)cc3)c3c(N)ncnc32)C1 [ibrutinib]
# Procedure, shortened: as §1
# [3] = compound: CC(=O)c1cnc2ccc(-c3cc(Cl)c(O)c(Cl)c3)nc2c1N[C@H]1CC[C@H](CN(C)C)CC1
# Procedure, shortened: as §1
# [4] = compound: CC(C)C1=C2N=C(C=C(N2N=C1)NCC3=CC=CC=C3)NCCCCCCN
# Procedure, shortened: as §1
# [5] = compound: CC1=C(C2=C(C=C1)C(=O)C3=CC=CC=C3N2CCCN)C
# Procedure, shortened: as §1
# [6] = compound: CC1=C(C(CC(=O)N1)C2=CC=C(C=C2)C(F)(F)F)C(=O)NC3=C(C=C4C(=C3)C=NN4)F
# Procedure, shortened: as §1
Target,log2 fold change (IRAK-1-4 Inhibitor I),log2 fold change (ralimetinib),log2 fold change [1],log2 fold change [2],log2 fold change (pinometostat),log2 fold change (ibrutinib),log2 fold change [3],log2 fold change [4],log2 fold change [5],log2 fold change [6]
XAB2 (UniProt Q9HCS7),inactive: -0.036,inactive: 0.14,inactive: -0.138,inactive: -0.041,inactive: 0.181,–,–,–,–,–
VWA3B isoform 6 (UniProt Q502W6),inactive: 0.043,inactive: -0.031,inactive: 0,inactive: -0.256,inactive: 0.079,inactive: -0.069,inactive: 0.013,inactive: -0.407,inactive: 0.089,–
VPS37A (UniProt Q8NEZ2),inactive: 0.045,inactive: 0.053,inactive: -0.025,inactive: 0.094,inactive: 0.045,inactive: -0.011,inactive: -0.07,inactive: -0.143,inactive: -0.066,–
WDR4 (UniProt P57081),inactive: 0.024,inactive: -0.033,inactive: -0.003,inactive: -0.072,inactive: -0.017,inactive: -0.052,inactive: 0.022,inactive: -0.005,inactive: 0.028,–
WARS2 (UniProt Q9UGM6),inactive: -0.016,inactive: -0.017,inactive: -0.144,inactive: 0.016,inactive: -0.053,inactive: -0.075,inactive: -0.031,inactive: -0.204,inactive: -0.004,–
WARS1 (UniProt G3V277),inactive: -0.005,–,–,–,inactive: 0.114,inactive: -0.064,inactive: -0.184,inactive: -0.009,inactive: 0.087,–
WDR7 (UniProt Q9Y4E6),inactive: -0.112,inactive: 0.067,inactive: -0.141,inactive: 0.1,inactive: 0.062,inactive: -0.027,inactive: -0.078,active: -0.429,inactive: 0.122,–
WDR91 (UniProt A4D1P6),inactive: -0.047,inactive: 0.192,inactive: 0.095,inactive: -0.088,inactive: 0,inactive: 0.171,inactive: -0.07,–,inactive: 0.13,–
"WDR46, A0A0G2JJL1",inactive: -0.153,–,inactive: 0.269,–,inactive: 0.325,inactive: 0.054,–,inactive: 0.003,inactive: -0.353,–
VPS37C (UniProt A5D8V6),inactive: 0.037,–,inactive: 0.002,–,inactive: -0.007,inactive: -0.001,inactive: -0.026,inactive: -0.057,inactive: 0.004,inactive: 0.09
VRK1 (UniProt Q99986),inactive: -0.041,inactive: -0.033,inactive: -0.32,inactive: 0.055,inactive: -0.008,inactive: 0.032,inactive: 0.338,inactive: -0.013,active: 0.433,–
WDR46 (UniProt O15213),inactive: -0.159,inactive: 0.175,inactive: 0.066,inactive: 0.154,inactive: 0.242,inactive: 0.099,inactive: 0.15,inactive: 0.192,inactive: -0.382,–
VDAC2 (UniProt P45880),inactive: 0.037,inactive: -0.03,inactive: 0.014,inactive: -0.023,inactive: -0.017,–,inactive: 0.004,inactive: 0.051,inactive: -0.018,inactive: 0.006
WARS1 (UniProt G3V5U1),inactive: 0.01,–,inactive: 0.156,–,inactive: 0.031,inactive: -0.158,–,–,–,–
"WASHC2C, A0A096LPC5",inactive: 0.01,inactive: -0.035,inactive: 0.085,inactive: 0.057,inactive: 0.008,inactive: -0.005,inactive: -0.159,inactive: -0.214,inactive: -0.125,–
WDR54 isoform 4 (UniProt Q9H977),–,–,–,–,–,–,–,–,–,inactive: 0.102
WARS1 (UniProt G3V339),–,–,inactive: 0.044,–,–,–,–,–,–,–
VPS13A isoform 4 (UniProt Q96RL7),–,inactive: 0.043,–,inactive: -0.323,–,–,–,inactive: 0.054,inactive: 0.062,–

Target,log2 fold change (IRAK-1-4 Inhibitor I),log2 fold change (ralimetinib),log2 fold change [1],log2 fold change [2],log2 fold change (pinometostat),log2 fold change (ibrutinib),log2 fold change [3],log2 fold change [4],log2 fold change [5],log2 fold change [6]
VPS72 isoform 2 (UniProt Q15906),–,inactive: -0.122,inactive: -0.177,inactive: -0.117,–,inactive: 0.119,inactive: 0.033,inactive: 0.133,active: -0.473,–
VGF (UniProt O15240),–,–,–,–,–,inactive: 0.096,–,inactive: -0.024,–,–
VIPAS39 (UniProt Q9H9C1),–,–,–,–,–,inactive: -0.122,inactive: 0.032,inactive: -0.262,inactive: 0.01,inactive: 0.006
WDR4 isoform 3 (UniProt P57081),–,–,inactive: -0.126,–,–,inactive: -0.157,–,–,–,–
WDFY2 (UniProt Q96P53),–,–,–,–,–,–,inactive: -0.241,inactive: -0.204,inactive: -0.083,–
VHL (UniProt P40337),–,inactive: 0.109,–,inactive: 0.132,–,–,inactive: -0.012,–,–,–
WNK4 (UniProt Q96J92),–,–,inactive: 0.154,–,–,–,inactive: -0.343,–,inactive: 0.028,–
WARS1 (UniProt G3V3P2),–,–,–,–,–,inactive: -0.036,–,–,–,–
VLDLR (UniProt P98155),–,–,inactive: 0.026,–,–,–,–,–,inactive: 0.066,inactive: 0.136
VCX3B (UniProt Q9H321),–,–,inactive: 0.054,–,–,inactive: 0.021,inactive: -0.187,inactive: 0.032,inactive: -0.009,inactive: 0.017
WBP1L isoform 2 (UniProt Q9NX94),–,–,–,–,–,inactive: -0.11,–,–,–,–
WWP2 (UniProt O00308),inactive: -0.181,–,inactive: -0.16,–,inactive: 0.207,–,–,–,–,–
XIAP (UniProt P98170),–,–,inactive: -0.157,–,–,inactive: -0.076,inactive: -0.105,inactive: -0.05,inactive: -0.002,–
WTAP (UniProt Q15007),–,–,–,–,–,–,inactive: -0.121,inactive: 0.089,–,–
WDR83 (UniProt Q9BRX9),–,–,–,–,–,–,–,inactive: 0.239,–,–
VPS54 (UniProt Q9P1Q0),–,–,–,–,–,–,inactive: -0.22,inactive: 0.039,inactive: 0.113,–
WDR33 (UniProt Q9C0J8),–,inactive: -0.058,inactive: 0,inactive: 0.07,–,inactive: -0.166,inactive: -0.15,inactive: 0.015,inactive: 0.193,inactive: 0.029

# Two entries from above, set out differently:
Target	log2 fold change (IRAK-1-4 Inhibitor I)	log2 fold change (ralimetinib)	log2 fold change [1]	log2 fold change [2]	log2 fold change (pinometostat)	log2 fold change (ibrutinib)	log2 fold change [3]	log2 fold change [4]	log2 fold change [5]	log2 fold change [6]
VIPAS39 (UniProt Q9H9C1)	–	–	–	–	–	inactive: -0.122	inactive: 0.032	inactive: -0.262	inactive: 0.01	inactive: 0.006
WARS1 (UniProt G3V3P2)	–	–	–	–	–	inactive: -0.036	–	–	–	–
